{"source": "PubChem BioAssay AID1259308 – NCATS, 2017", "test": "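Genes whose loss raises luciferase production in HEK293 cells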 (primary screen)", "system": "human HEK293 embryonic kidney cells stably expressing firefly luciferase (HEK-CMV-Luc2-Hygro)", "reagents": "single siRNA against human genes, 0.8 pmol siRNA per well", "time to read-out": "72 h", "measurement": "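Reporter luminescence and viable-cell signal on separate replicate plates, given as percent of non-targeting control and median/MAD z-scores, plus per-cell luciferase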", "direction": "total luciferase, z-score and total luciferase, % of control: higher = more reporter protein produced", "call rule": "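An siRNA counts as active if its total luciferase robust z-score exceeds 3; genes with two or more such siRNAs out of three were retested with fresh siRNAs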", "calls": "active = raised luciferase; inactive = no rise", "note": "Shown is an unselected part of about 59,000 reagents tested. About 1,510 of all reagents (2.6%) count as active. 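Calls use total luciferase alone and ignore viability, so some active siRNAs may act by altering cell number.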 Reagents against one gene are numbered here. Not all columns of the deposit are shown."}
{"gene symbol": "SPC25", "reagent": 1, "total luciferase, z-score": -1.19, "total luciferase, % of control": 58.2, "Outcome": "inactive"}
{"gene symbol": "SPC25", "reagent": 2, "total luciferase, z-score": -0.241, "total luciferase, % of control": 77.1, "Outcome": "inactive"}
{"gene symbol": "SPC25", "reagent": 3, "total luciferase, z-score": 0.304, "total luciferase, % of control": 87.9, "Outcome": "inactive"}
{"gene symbol": "MRPS28", "reagent": 1, "total luciferase, z-score": 0.104, "total luciferase, % of control": 84, "Outcome": "inactive"}
{"gene symbol": "MRPS28", "reagent": 2, "total luciferase, z-score": 0.04, "total luciferase, % of control": 82.7, "Outcome": "inactive"}
{"gene symbol": "MRPS28", "reagent": 3, "total luciferase, z-score": 2.67, "total luciferase, % of control": 135, "Outcome": "inactive"}
{"gene symbol": "GALE", "reagent": 1, "total luciferase, z-score": 0.0541, "total luciferase, % of control": 83, "Outcome": "inactive"}
{"gene symbol": "GALE", "reagent": 2, "total luciferase, z-score": 0.255, "total luciferase, % of control": 87, "Outcome": "inactive"}
{"gene symbol": "GALE", "reagent": 3, "total luciferase, z-score": 1.52, "total luciferase, % of control": 112, "Outcome": "inactive"}
{"gene symbol": "SP140", "reagent": 1, "total luciferase, z-score": -0.503, "total luciferase, % of control": 71.9, "Outcome": "inactive"}
{"gene symbol": "SP140", "reagent": 2, "total luciferase, z-score": -2.06, "total luciferase, % of control": 40.8, "Outcome": "inactive"}
{"gene symbol": "SP140", "reagent": 3, "total luciferase, z-score": 0.582, "total luciferase, % of control": 93.5, "Outcome": "inactive"}
{"gene symbol": "LOC644058 (retired record)", "reagent": 1, "total luciferase, z-score": -0.152, "total luciferase, % of control": 78.9, "Outcome": "inactive"}
{"gene symbol": "LOC644058 (retired record)", "reagent": 2, "total luciferase, z-score": -0.687, "total luciferase, % of control": 68.2, "Outcome": "inactive"}
{"gene symbol": "LOC644058 (retired record)", "reagent": 3, "total luciferase, z-score": -2.84, "total luciferase, % of control": 25.5, "Outcome": "inactive"}
{"gene symbol": "SLC5A2", "reagent": 1, "total luciferase, z-score": -0.421, "total luciferase, % of control": 73.5, "Outcome": "inactive"}
{"gene symbol": "SLC5A2", "reagent": 2, "total luciferase, z-score": -1.03, "total luciferase, % of control": 61.3, "Outcome": "inactive"}
{"gene symbol": "SLC5A2", "reagent": 3, "total luciferase, z-score": -0.423, "total luciferase, % of control": 73.5, "Outcome": "inactive"}
{"gene symbol": "ARID1A", "reagent": 1, "total luciferase, z-score": 0.394, "total luciferase, % of control": 89.7, "Outcome": "inactive"}
{"gene symbol": "ARID1A", "reagent": 2, "total luciferase, z-score": -1.03, "total luciferase, % of control": 61.4, "Outcome": "inactive"}
{"gene symbol": "ARID1A", "reagent": 3, "total luciferase, z-score": -0.393, "total luciferase, % of control": 74.1, "Outcome": "inactive"}
{"gene symbol": "ARL14EPL", "reagent": 1, "total luciferase, z-score": 0.132, "total luciferase, % of control": 84.5, "Outcome": "inactive"}
{"gene symbol": "ARL14EPL", "reagent": 2, "total luciferase, z-score": 1.87, "total luciferase, % of control": 119, "Outcome": "inactive"}
{"gene symbol": "ARL14EPL", "reagent": 3, "total luciferase, z-score": -0.347, "total luciferase, % of control": 75, "Outcome": "inactive"}
{"gene symbol": "ZNF292", "reagent": 1, "total luciferase, z-score": 0.122, "total luciferase, % of control": 84.3, "Outcome": "inactive"}
{"gene symbol": "ZNF292", "reagent": 2, "total luciferase, z-score": 1.69, "total luciferase, % of control": 116, "Outcome": "inactive"}
{"gene symbol": "ZNF292", "reagent": 3, "total luciferase, z-score": -1.83, "total luciferase, % of control": 45.6, "Outcome": "inactive"}
{"gene symbol": "SYTL4", "reagent": 1, "total luciferase, z-score": -1.26, "total luciferase, % of control": 56.9, "Outcome": "inactive"}
{"gene symbol": "SYTL4", "reagent": 2, "total luciferase, z-score": 0.0643, "total luciferase, % of control": 83.2, "Outcome": "inactive"}
{"gene symbol": "SYTL4", "reagent": 3, "total luciferase, z-score": -1.29, "total luciferase, % of control": 56.3, "Outcome": "inactive"}
{"gene symbol": "AASS", "reagent": 1, "total luciferase, z-score": 1.03, "total luciferase, % of control": 102, "Outcome": "inactive"}
{"gene symbol": "AASS", "reagent": 2, "total luciferase, z-score": -1.38, "total luciferase, % of control": 54.5, "Outcome": "inactive"}
{"gene symbol": "AASS", "reagent": 3, "total luciferase, z-score": 0.907, "total luciferase, % of control": 99.9, "Outcome": "inactive"}

Just “total luciferase, % of control”, for 3 of the entries above:
ARID1A #1	89.7
ARID1A #2	61.4
ARID1A #3	74.1
